Some of the results follow. Residues, ends and D or L forms follow the SMILES beside them. *: point of attachment. Cbz = O=C(OCc1ccccc1)*
Legend:
Experiment in all cases: log2 fold change, soluble protein after heating vs DMSO (PISA); higher = thermal stabilisation; K562 cells, 10 uM, 30 min; active = over 0.2 and 3.5 SD of the protein, either way, in both replicates (recomputed)
[1] = compound: C1COCCN1CCN2C3=CC=CC=C3N=C2NC(=O)C4=CC(=CC=C4)[N+](=O)[O-] [IRAK-1-4 Inhibitor I]
How it was run: (§1)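 Aliquots of K562 cells (2×10^6 cells/mL) treated with 10 μM compound for 30 min were heated for 3 min over 48°C-58°C. After pooling and extraction in PBS with 0.5% NP-40 at 4°C, soluble protein from a 21,000xg, 90 min spin was quantified by TMTpro 16plex LC-MS/MS with channel sums equalised. Thermal stability is expressed against control samples, from duplicates, as a log2 fold change.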

Sequences of proteins named here, by UniProt entry; tags and fusion partners are left off. A change or cut given only in a name is not applied to a line headed by its entry.
UniProt P30613: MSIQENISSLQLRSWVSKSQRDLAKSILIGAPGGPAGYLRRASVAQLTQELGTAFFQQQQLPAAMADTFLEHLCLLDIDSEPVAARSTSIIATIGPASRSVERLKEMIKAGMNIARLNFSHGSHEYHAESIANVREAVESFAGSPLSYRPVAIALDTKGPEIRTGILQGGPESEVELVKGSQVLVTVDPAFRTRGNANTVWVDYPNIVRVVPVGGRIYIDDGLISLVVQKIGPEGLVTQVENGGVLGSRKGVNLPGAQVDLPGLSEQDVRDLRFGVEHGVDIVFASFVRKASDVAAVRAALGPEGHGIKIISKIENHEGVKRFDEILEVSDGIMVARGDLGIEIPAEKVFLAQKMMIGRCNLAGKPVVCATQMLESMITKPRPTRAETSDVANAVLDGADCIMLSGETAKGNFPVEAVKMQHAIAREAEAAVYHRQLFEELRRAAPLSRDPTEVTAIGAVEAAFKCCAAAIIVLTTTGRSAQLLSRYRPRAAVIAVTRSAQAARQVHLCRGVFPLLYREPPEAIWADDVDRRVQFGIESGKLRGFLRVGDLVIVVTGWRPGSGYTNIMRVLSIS
UniProt P28328: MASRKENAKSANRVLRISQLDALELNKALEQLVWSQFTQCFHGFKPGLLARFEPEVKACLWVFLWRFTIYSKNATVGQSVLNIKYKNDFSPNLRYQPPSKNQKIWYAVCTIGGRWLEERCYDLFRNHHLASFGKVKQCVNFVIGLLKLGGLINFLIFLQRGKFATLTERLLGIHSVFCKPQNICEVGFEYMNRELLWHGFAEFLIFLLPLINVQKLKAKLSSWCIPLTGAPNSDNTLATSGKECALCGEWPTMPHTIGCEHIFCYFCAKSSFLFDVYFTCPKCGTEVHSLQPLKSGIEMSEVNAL
UniProt Q8IZ21: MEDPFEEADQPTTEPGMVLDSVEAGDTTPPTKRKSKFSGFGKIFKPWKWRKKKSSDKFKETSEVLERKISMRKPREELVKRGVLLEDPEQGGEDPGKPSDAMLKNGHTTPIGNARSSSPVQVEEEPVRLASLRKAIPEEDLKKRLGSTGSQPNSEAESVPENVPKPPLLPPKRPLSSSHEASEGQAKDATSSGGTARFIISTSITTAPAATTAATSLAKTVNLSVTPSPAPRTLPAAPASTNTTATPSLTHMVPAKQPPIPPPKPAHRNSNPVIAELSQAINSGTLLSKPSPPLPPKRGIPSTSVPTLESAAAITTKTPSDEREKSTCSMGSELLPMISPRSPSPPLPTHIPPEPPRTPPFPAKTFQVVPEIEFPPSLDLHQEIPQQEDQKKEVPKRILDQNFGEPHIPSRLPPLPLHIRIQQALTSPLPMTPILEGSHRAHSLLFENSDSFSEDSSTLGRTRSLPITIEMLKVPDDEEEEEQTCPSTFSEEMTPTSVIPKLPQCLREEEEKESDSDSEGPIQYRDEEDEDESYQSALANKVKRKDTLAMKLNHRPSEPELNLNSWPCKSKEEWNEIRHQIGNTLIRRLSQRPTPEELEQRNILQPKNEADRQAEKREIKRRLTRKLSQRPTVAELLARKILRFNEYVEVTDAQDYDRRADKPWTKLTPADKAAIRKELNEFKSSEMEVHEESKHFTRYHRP
UniProt Q9NWS0, whole entry, looked up: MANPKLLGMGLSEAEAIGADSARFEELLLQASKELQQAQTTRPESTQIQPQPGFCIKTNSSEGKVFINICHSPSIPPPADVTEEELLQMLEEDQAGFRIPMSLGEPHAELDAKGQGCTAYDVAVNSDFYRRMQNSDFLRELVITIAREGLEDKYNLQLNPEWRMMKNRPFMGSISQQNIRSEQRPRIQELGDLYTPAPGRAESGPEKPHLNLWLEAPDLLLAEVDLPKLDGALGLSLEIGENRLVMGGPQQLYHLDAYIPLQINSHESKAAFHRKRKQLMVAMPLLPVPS
UniProt P48739: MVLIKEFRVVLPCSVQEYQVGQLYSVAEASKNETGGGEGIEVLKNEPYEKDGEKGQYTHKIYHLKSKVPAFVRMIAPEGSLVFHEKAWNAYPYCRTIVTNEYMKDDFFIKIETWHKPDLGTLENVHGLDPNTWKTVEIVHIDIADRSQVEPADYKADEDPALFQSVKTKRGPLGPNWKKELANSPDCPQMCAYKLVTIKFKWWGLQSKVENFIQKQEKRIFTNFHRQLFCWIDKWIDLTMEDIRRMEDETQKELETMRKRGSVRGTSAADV
UniProt P35232: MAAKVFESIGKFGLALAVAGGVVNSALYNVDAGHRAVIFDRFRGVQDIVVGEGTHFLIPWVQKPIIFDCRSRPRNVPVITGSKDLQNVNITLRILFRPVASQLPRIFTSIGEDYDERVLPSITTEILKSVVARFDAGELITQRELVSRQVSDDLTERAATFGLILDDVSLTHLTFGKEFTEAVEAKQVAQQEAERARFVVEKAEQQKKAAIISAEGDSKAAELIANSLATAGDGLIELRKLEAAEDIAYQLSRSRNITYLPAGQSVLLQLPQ
UniProt Q9NQP4, whole entry, looked up: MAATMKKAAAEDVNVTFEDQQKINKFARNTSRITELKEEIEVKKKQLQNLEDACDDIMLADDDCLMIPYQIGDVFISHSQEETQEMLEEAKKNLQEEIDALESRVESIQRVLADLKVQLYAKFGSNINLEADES
UniProt Q13526, whole entry, looked up: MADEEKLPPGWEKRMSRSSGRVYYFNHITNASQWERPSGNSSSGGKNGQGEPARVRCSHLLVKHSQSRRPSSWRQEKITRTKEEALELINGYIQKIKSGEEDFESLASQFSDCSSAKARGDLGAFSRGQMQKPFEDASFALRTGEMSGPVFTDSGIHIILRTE
UniProt Q9Y263: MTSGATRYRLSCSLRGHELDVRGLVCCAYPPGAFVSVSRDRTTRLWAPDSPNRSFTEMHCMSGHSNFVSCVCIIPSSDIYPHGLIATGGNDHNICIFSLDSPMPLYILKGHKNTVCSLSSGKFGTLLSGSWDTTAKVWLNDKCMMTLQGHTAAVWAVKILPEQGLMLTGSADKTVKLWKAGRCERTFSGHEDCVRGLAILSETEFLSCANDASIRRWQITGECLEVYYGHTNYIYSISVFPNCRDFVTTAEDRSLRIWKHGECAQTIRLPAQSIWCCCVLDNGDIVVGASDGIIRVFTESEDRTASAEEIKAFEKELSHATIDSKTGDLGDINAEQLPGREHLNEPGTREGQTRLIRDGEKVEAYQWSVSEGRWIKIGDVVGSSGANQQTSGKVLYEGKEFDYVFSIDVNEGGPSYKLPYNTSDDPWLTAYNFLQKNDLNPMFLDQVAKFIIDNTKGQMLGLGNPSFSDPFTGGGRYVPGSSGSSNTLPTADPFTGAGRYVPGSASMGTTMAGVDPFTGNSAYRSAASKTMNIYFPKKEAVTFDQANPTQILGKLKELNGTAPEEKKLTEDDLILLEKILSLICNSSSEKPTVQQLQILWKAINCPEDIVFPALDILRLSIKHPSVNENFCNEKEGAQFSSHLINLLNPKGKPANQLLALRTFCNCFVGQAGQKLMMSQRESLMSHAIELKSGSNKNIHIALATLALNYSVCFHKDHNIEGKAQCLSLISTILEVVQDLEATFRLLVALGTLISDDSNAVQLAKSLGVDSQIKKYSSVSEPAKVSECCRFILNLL
UniProt Q99623, whole entry, looked up: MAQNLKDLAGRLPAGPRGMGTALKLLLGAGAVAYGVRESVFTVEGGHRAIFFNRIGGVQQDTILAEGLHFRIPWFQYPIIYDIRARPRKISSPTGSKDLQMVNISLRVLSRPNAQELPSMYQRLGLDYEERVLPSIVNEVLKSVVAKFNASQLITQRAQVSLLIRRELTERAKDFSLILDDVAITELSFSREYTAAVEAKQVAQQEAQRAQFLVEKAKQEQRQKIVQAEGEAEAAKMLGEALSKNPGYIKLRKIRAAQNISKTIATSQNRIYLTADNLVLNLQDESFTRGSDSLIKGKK
UniProt Q9UHV9, whole entry, looked up: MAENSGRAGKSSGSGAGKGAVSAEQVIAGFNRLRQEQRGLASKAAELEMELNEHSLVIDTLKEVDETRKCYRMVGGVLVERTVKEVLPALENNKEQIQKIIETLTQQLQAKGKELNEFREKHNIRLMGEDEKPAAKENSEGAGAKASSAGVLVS
UniProt P00558: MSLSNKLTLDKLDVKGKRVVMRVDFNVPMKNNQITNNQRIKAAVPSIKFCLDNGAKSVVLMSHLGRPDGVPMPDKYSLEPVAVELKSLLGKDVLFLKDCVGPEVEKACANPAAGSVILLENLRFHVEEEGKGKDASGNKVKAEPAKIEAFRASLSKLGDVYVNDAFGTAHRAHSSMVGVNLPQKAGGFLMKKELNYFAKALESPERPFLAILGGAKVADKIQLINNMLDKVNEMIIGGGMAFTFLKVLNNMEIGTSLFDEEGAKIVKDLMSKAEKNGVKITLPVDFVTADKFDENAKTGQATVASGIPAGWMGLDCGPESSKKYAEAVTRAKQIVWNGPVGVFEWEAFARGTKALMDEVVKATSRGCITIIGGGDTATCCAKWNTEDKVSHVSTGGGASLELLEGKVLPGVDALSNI
UniProt P07737, whole entry, looked up: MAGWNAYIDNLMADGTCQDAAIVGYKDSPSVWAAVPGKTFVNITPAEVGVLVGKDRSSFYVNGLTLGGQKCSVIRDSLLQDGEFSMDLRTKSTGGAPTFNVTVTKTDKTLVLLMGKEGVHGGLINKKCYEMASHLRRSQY
UniProt Q9NRX4: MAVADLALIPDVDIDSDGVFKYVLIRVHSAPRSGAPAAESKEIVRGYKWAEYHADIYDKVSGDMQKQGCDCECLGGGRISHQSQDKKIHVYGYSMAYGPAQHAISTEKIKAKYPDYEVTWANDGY
UniProt Q96HS1, whole entry, looked up: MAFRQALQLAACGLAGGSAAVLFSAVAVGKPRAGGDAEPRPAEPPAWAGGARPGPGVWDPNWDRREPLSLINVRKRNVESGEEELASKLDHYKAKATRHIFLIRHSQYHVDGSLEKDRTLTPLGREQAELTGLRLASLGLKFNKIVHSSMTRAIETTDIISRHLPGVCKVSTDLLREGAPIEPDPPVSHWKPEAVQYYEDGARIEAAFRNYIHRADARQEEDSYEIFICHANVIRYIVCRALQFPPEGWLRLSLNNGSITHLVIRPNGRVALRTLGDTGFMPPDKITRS

[2] = compound: C=CC(=O)N1CCC[C@@H](n2nc(-c3ccc(Oc4ccccc4)cc3)c3c(N)ncnc32)C1 [ibrutinib]
How it was run: as §1

[3] = compound: CC(=O)c1cnc2ccc(-c3cc(Cl)c(O)c(Cl)c3)nc2c1N[C@H]1CC[C@H](CN(C)C)CC1
How it was run: as §1

[4] = compound: CC(C)(C)Cn1c(N)nc2ccc(-c3[nH]c(C(C)(C)C)nc3-c3ccc(F)cc3)nc21 [ralimetinib]
How it was run: as §1

[5] = compound: CC(C)(O)CC(=O)NCCn1ccc2ncnc(Nc3ccc(Oc4cccc(C(F)(F)F)c4)c(Cl)c3)c21
How it was run: as §1

[6] = compound: CC(C)C1=C2N=C(C=C(N2N=C1)NCC3=CC=CC=C3)NCCCCCCN
How it was run: as §1

[7] = compound: CC(C)C[C@@H](C=O)NC(=O)[C@H](CC(C)C)NC(=O)[C@H](CC(C)C)NC(=O)OCc1ccccc1
How it was run: as §1

[8] = compound: CC(C)N(C[C@H]1O[C@@H](n2cnc3c(N)ncnc32)[C@H](O)[C@@H]1O)[C@H]1C[C@@H](CCc2nc3cc(C(C)(C)C)ccc3[nH]2)C1 [pinometostat]
How it was run: as §1

[9] = compound: CC1=C(C(CC(=O)N1)C2=CC=C(C=C2)C(F)(F)F)C(=O)NC3=C(C=C4C(=C3)C=NN4)F
How it was run: as §1

[10] = compound: CC1=C(C2=C(C=C1)C(=O)C3=CC=CC=C3N2CCCN)C
How it was run: as §1

[11] = compound: CC1=C(C=C(C=C1)NC(=O)C2=CC(=CC=C2)C(C)(C)C#N)NC3=CC4=C(C=C3)N=CN(C4=O)C
How it was run: as §1

[12] = compound: CC1=C(C=C(C=C1)NC(=O)C2=CC(=CC=C2)N(C)C)NC(=O)C3=CC=C(C=C3)O
How it was run: as §1

[13] = compound: CC1=CC=C(C=C1)SC2=C3C=C(SC3=CN=C2)C(=O)N
How it was run: as §1

[14] = compound: CC1=NC(=CC=C1)C2=C(N=C(N2)C(C)(C)C)C3=CC4=NC=CN=C4C=C3
How it was run: as §1

[15] = compound: CCCCN(Cc1ccc(C(=O)NO)cc1)C(=O)Nc1ccccc1 [Nexturastat A]
How it was run: as §1

[16] = compound: CCCS(=O)(=O)Nc1ccc(F)c(C(=O)c2c[nH]c3ncc(-c4ccc(Cl)cc4)cc23)c1F [vemurafenib]
How it was run: as §1

[17] = compound: CCCS(=O)(=O)Nc1ccc(F)c(C(=O)c2c[nH]c3ncc(Cl)cc23)c1F
How it was run: as §1

[18] = compound: CCCc1cc(C)[nH]c(=O)c1CNC(=O)c1cc(-c2ccnc(N3CCN(C)CC3)c2)cc2c1cnn2C(C)C
How it was run: as §1

[19] = compound: CCN(CC)Cc1ccc2cc(COC(=O)Nc3ccc(C(=O)NO)cc3)ccc2c1 [givinostat]
How it was run: as §1

[20] = compound: CCN(CCCOc1ccc2c(Nc3cc(CC(=O)Nc4cccc(F)c4)[nH]n3)ncnc2c1)CCOP(=O)(O)O [barasertib]
How it was run: as §1

Measured: log2 fold change

PKLR (UniProt P30613)
inactive: [1] 0.034 | [2] 0.011 | [3] -0.002 | [4] -0.036 | [5] -0.002 | [6] 0.064 | [7] -0.02 | [8] -0.045 | [9] 0.027 | [10] -0.012 | [11] -0.022 | [12] -0.012 | [13] 0.027 | [14] 0.006 | [15] -0.018 | [16] 0.006 | [17] 0.007 | [18] -0.015 | [19] -0.015 | [20] 0.002

PEX2 (UniProt P28328)
inactive: [1] -0.036 | [2] -0.039 | [3] -0.06 | [4] 0.036 | [5] -0.092 | [6] -0.06 | [7] 0.071 | [8] 0.046 | [9] 0.044 | [10] 0.04 | [11] -0.085 | [12] -0.041 | [13] 0.063 | [14] 0.021 | [15] 0.058 | [16] 0.041 | [17] 0.065 | [18] -0.089 | [19] -0.026 | [20] 0.021

PHACTR4 isoform 2 (UniProt Q8IZ21)
inactive: [1] -0.007 | [2] 0.038 | [3] 0.009 | [4] -0.004 | [5] -0.027 | [6] 0.102 | [7] 0 | [8] -0.047 | [9] -0.035 | [10] 0.017 | [11] -0.007 | [12] 0.012 | [13] -0.01 | [14] 0.016 | [15] -0.001 | [16] -0.023 | [17] -0.043 | [18] -0.041 | [19] 0.085 | [20] 0.002

PIH1D1 (UniProt Q9NWS0)
inactive: [1] -0.036 | [2] -0.039 | [3] -0.013 | [4] 0.048 | [5] -0.061 | [6] -0.005 | [7] 0.061 | [8] 0.011 | [9] -0.053 | [10] -0.015 | [11] 0.021 | [12] -0.002 | [13] 0.001 | [14] 0.159 | [15] 0.042 | [16] 0.044 | [17] 0.075 | [18] 0.14 | [19] 0.018 | [20] -0.006

PITPNB isoform 3 (UniProt P48739)
inactive: [1] 0.03 | [2] -0.012 | [3] 0.094 | [4] -0.044 | [5] -0.014 | [6] 0.036 | [7] 0.013 | [8] -0.024 | [9] -0.056 | [10] 0.045 | [11] 0 | [12] -0.011 | [13] -0.026 | [14] 0.012 | [15] -0.103 | [16] 0.007 | [17] 0.009 | [18] -0.012 | [19] -0.04 | [20] -0.011

PHB (UniProt P35232)
inactive: [1] 0.005 | [2] 0.004 | [3] -0.009 | [4] -0.081 | [5] -0.008 | [6] 0.011 | [7] -0.033 | [8] -0.033 | [9] 0.02 | [10] 0.048 | [11] 0.008 | [12] -0.02 | [13] -0.012 | [14] 0.012 | [15] -0.019 | [16] -0.041 | [17] -0.012 | [18] -0.007 | [19] -0.022 | [20] -0.004

PHF3 (UniProt Q92576)
inactive: [1] -0.049 | [2] -0.031 | [3] 0.187 | [4] 0.049 | [5] 0.061 | [6] 0.11 | [7] 0.122 | [8] 0.175 | [9] -0.07 | [10] 0.28 | [11] -0.005 | [12] 0.045 | [13] -0.078 | [14] -0.103 | [15] 0.134 | [16] -0.058 | [17] -0.115 | [18] 0.061 | [19] 0.031 | [20] -0.059

PFDN4 (UniProt Q9NQP4)
inactive: [1] 0.086 | [2] -0.024 | [3] -0.067 | [4] 0.19 | [5] 0.027 | [6] 0.067 | [7] 0.138 | [8] -0.049 | [9] 0.064 | [10] 0.006 | [11] -0.024 | [12] 0.087 | [13] -0.033 | [14] 0.046 | [15] 0.083 | [16] -0.03 | [17] -0.006 | [18] 0.116 | [19] -0.02 | [20] 0.092

PIN1 (UniProt Q13526)
inactive: [1] 0.039 | [2] 0.033 | [3] -0.016 | [4] -0.077 | [5] 0.032 | [6] 0.096 | [7] 0.005 | [8] -0.027 | [9] -0.005 | [10] 0.001 | [11] -0.004 | [12] -0.01 | [13] 0.019 | [14] -0.006 | [15] 0.026 | [16] 0.039 | [17] 0.04 | [18] -0.011 | [19] 0.048 | [20] 0.05

PLAA (UniProt Q9Y263)
inactive: [1] -0.016 | [2] -0.02 | [3] 0.016 | [4] 0.016 | [5] -0.139 | [6] -0.072 | [7] 0.091 | [8] 0.03 | [9] -0.022 | [10] 0.072 | [11] 0.027 | [12] -0.035 | [13] -0.014 | [14] 0.036 | [15] 0.05 | [16] 0.002 | [17] 0.02 | [18] -0.013 | [19] 0.055 | [20] 0.022

PHB2 (UniProt Q99623)
inactive: [1] -0.007 | [2] -0.028 | [3] 0.008 | [4] -0.038 | [5] -0.019 | [6] -0.002 | [7] -0.022 | [8] -0.061 | [9] 0.006 | [10] -0.005 | [11] 0.004 | [12] 0.02 | [13] -0.012 | [14] 0.036 | [15] -0.108 | [16] -0.024 | [17] -0.017 | [18] -0.023 | [19] -0.013 | [20] -0.007

PFDN2 (UniProt Q9UHV9)
inactive: [1] 0.045 | [2] -0.001 | [3] -0.008 | [4] -0.045 | [5] -0.016 | [6] 0.046 | [7] -0.008 | [8] -0.046 | [9] -0.002 | [10] 0.029 | [11] 0.015 | [12] 0.018 | [13] 0.003 | [14] 0.026 | [15] -0.129 | [16] -0.011 | [17] -0.009 | [18] -0.083 | [19] -0.027 | [20] -0.003

PGK1 (UniProt P00558)
inactive: [1] 0.06 | [2] 0.007 | [3] -0.019 | [4] -0.022 | [5] 0 | [6] 0.011 | [7] -0.006 | [8] -0.02 | [9] -0.031 | [10] 0.08 | [11] 0.022 | [12] -0.004 | [13] -0.016 | [14] 0.027 | [15] -0.05 | [16] 0.003 | [17] -0.012 | [18] -0.042 | [19] -0.079 | [20] 0.007

PFN1 (UniProt P07737)
inactive: [1] 0.03 | [2] 0.017 | [3] 0 | [4] -0.05 | [5] 0.005 | [6] 0.021 | [7] -0.04 | [8] -0.034 | [9] -0.005 | [10] -0.003 | [11] 0.02 | [12] 0 | [13] 0.006 | [14] 0.017 | [15] -0.074 | [16] -0.019 | [17] 0.013 | [18] -0.003 | [19] -0.044 | [20] 0.025

2 records drawn at random from those above, as already listed:
PGK1 (UniProt P00558)
inactive: [1] 0.06 | [2] 0.007 | [3] -0.019 | [4] -0.022 | [5] 0 | [6] 0.011 | [7] -0.006 | [8] -0.02 | [9] -0.031 | [10] 0.08 | [11] 0.022 | [12] -0.004 | [13] -0.016 | [14] 0.027 | [15] -0.05 | [16] 0.003 | [17] -0.012 | [18] -0.042 | [19] -0.079 | [20] 0.007

PHB (UniProt P35232)
inactive: [1] 0.005 | [2] 0.004 | [3] -0.009 | [4] -0.081 | [5] -0.008 | [6] 0.011 | [7] -0.033 | [8] -0.033 | [9] 0.02 | [10] 0.048 | [11] 0.008 | [12] -0.02 | [13] -0.012 | [14] 0.012 | [15] -0.019 | [16] -0.041 | [17] -0.012 | [18] -0.007 | [19] -0.022 | [20] -0.004

Continuation.

PHPT1 (UniProt Q9NRX4)
inactive: [1] 0.042 | [2] -0.021 | [3] -0.004 | [4] -0.112 | [5] 0.011 | [6] 0.021 | [7] 0.047 | [8] -0.008 | [9] -0.017 | [10] 0.029 | [11] -0.011 | [12] 0.01 | [13] 0.067 | [14] 0.016 | [15] -0.178 | [16] -0.003 | [17] -0.017 | [18] -0.035 | [19] -0.049 | [20] 0.016

PGAM5 (UniProt Q96HS1)
inactive: [1] -0.089 | [2] 0.038 | [3] 0.158 | [4] 0.119 | [5] 0.071 | [6] 0.058 | [7] 0.125 | [8] 0.239 | [9] 0.024 | [10] 0.116 | [11] 0.001 | [12] 0.001 | [13] -0.009 | [14] -0.05 | [15] 0.15 | [16] 0.001 | [17] -0.029 | [18] 0.082 | [19] 0.032 | [20] -0.027
